In article PMC2246842, “Decrease of prostaglandin I2 binding sites in thyroid cancer” (British Journal of Cancer, 1988):

Legend:
Parameters in all cases: species or system human
[1] = tested on: prostaglandin I2 (prostacyclin, PGI2) binding sites; assay: [3H]iloprost saturation binding (vacuum filtration, Scatchard analysis) on less differentiated and anaplastic thyroid cancer membrane fraction
Protocol: (§1) For comparative studies saturation experi- ments were performed. […] Values are given as x +s.d. Student's t-test was employed for paired data. […] Each point represents the average of 6 separate experiments. […] Each point represents the average of 5 separate determinations.

[2] = tested on: prostaglandin I2 (prostacyclin, PGI2) binding sites; assay: [3H]iloprost saturation binding (vacuum filtration, Scatchard analysis) on well differentiated thyroid cancer membrane fraction
Protocol: as §1

[3] = tested on: prostaglandin I2 (prostacyclin, PGI2) binding sites; assay: [3H]iloprost saturation binding (vacuum filtration, Scatchard analysis) on normal thyroid membrane fraction; conditions: normal thyroid tissue
Protocol: as §1

For `CC#CCC(C)[C@H](O)/C=C/[C@@H]1[C@H]2C/C(=C/CCCC(=O)O)C[C@H]2C[C@H]1O` (stereo partly drawn) [[3H]iloprost, iloprost], the “low affinity binding sites” value [1] was “not demonstrable”, the “specific binding at [3H]iloprost concentrations > 100 nM” value ([1]; 4 C, 40 min) was “no specific binding was observed” and the “low affinity binding sites” value [2] was “not demonstrable”. For the same compound, the “specific binding at [3H]iloprost concentrations > 100 nM” value ([2]; 4 C, 40 min) was “no specific binding was observed”, the “binding capacity (Bmax), low affinity binding sites” value ([3]; 4 C, 40 min, mean +/- s.d.) was 5.1+1.6 pmol mg-1 membrane protein and the “percentage of specific [3H]iloprost binding” value ([3]; high affinity binding range) was ~80%.
